Assay results taken from publication PMC10163288.
Some of the results follow.

B1: il2ra_site1_1z92_normal_mot_9c3e5e2d2b9ffb70dc788f52fbfab6d5_0001_1_af2_000000019_0001_53_65_H_._HHH_b1_04252_af2_0001_0000100010_0000001_1 (protein)
chain: SSSSDELEEIAREIVEELVKEFDLSERQKEELERVAERLLEAGSDEEKIRKILHKLARAAGSSSS
B2: il2ra_site1_1z92_sap_12_mot_HHH_b1_07624_af2_000000183_0001_1_21_H_._HHH_b2_00546_0001_0000500044_0000001_0_0001_af2pred_dldesign_0_af2pred (protein)
chain: DEEVAKILELLKTDKEKALEALIEYLRSLGSPAEIYLADYLERLKKEDPERAEKYAHKVLEMALK
B3: il2ra_site1_2b5i_sap_18_mot_0921d739bb7547bb6fa23329820ad62a_0001_000000012_0001_54_65_H_._HHH_b1_07747_af2_0001_0000200003_0000001_0_0001_af2pred_dldesign_0_af … (protein)
chain: DLEAVAARLRKEDPEAYRLLRLARKALRKKGVPDEEIERLFRELLREAPSPRAAVEALAEFALEL
B4: il2ra_site2_3nfp_normal_mot_HHH_b1_01086_000000225_0001_20_36_H_._HHH_b2_03301_0001_0000100007_0000001_0 (protein)
chain: SSSSDEEERVRELLEEARKLIEEGNPEEAEKVLQEATQLIYELGDFELFAELVDLSFELFSSSSS
B5: il2ra_site2_3nfp_normal_mot_HHH_b1_03851_000000147_0001_21_38_H_._HHH_b2_07765_af2_0001_0000100002_0000001_0 (protein)
chain: SSSSSSDELEELIREIERAEEEGDRNEVAELLLELAKLAAELNDEEAAEFVLKVYAELRSSSSSS
B6: il2ra_site1_2b5i_normal_mot_HHH_b1_01495_af2_000000272_0001_42_56_H_._HHH_b2_05717_0001_0000100005_0000001_0 (protein)
chain: SSSSDEQEELQELFLEASRLIRNGNPEEARRVLEEAEQLAREAGDEKALKDLEFMLERLNSSSSS
B7: il2ra_site2_2erj_sap_31_mot_HHH_b1_00941_000000051_0001_45_58_H_._HHH_b1_02781_0001_0000200010_0000001_0_0001 (protein)
chain: SSSSDEELHELFELLNELIRLLEEGDDEEFQKLLEELKRLAEELGSRTLKEMLELLERQFKSSSS
B8: il2ra_site1_3nfp_normal_mot_cc4219192d8ccd35c40e7b68f9a57604_0001_af2_000000124_0001_16_32_H_._HHH_b1_07852_af2_0001_0000300041_0000001_0 (protein)
chain: SSSSSNTRWLEELAERAHERNDRLQLRVLAKLVRRALEIHGNPEAEEVLKLIEELLERLKSSSSS
B9: il2ra_site2_2erj_normal_mot_HHH_b2_02303_000000050_0001_43_56_H_._HHH_b2_07923_0001_0000300013_0000001_1 (protein)
chain: SSSSSDDEVAELIIEAVELANNGNPEEARRVLEEAEELARELNNPLLERYVELALEDIRSSSSSS
B10: il2ra_site2_2erj_sap_10_mot_HHH_b1_07741_000000192_0001_1_20_H_._HHH_b2_00205_0001_0000700036_0000001_0_0001 (protein)
chain: SSSSSHEEEVRELLEEAEKAYREGDLHLVFELLSRALHVAAKHQDQELQEEIARFVEELTSSSSS
B11: il2ra_site1_1z92_sap_24_mot_HHH_b2_05734_000000004_0001_1_18_H_._353039fe001517a32f73519ce70da452_0001_af2_0001_0000100005_0000001_0_0001_af2pred_0001_af2pred_1 (protein)
chain: SSSSSLERSLKRAVELAVKEAGLSEEQEKELEELVEELIRRGVDFKEAIKIIDKRALELANSSSS
B12: il2ra_site1_2b5i_sap_9_mot_HHH_b1_05188_af2_000000065_0001_43_56_H_._HHH_b1_04782_af2_0001_0000100004_0000001_0_0001_af2pred_dldesign_0_af2pred (protein)
chain: SSSSSMSAEIRRLILKAEELRKAGKDEEAIKLLEEALKLAKEQNSSLAKIIERNLERLLESSSSS
B13: il2ra_site2_2erj_normal_mot_HHH_b1_06160_000000008_0001_39_56_H_._HHH_b1_01229_0001_0000100002_0000001_0_af2pred_0001_af2pred (protein)
chain: SSSSDEERRALEITLEAVALAHRLRDEETVEEIEELTEEYKEEGDPHYLEIVEELLKELKSSSSS
B14: il2ra_site1_3nfp_sap_20_mot_7e5d6dae1157c95132ff0874b0fd9e6b_0001_1_af2_000000004_0001_1_12_H_._HEEHE_2288_0001_0000200007_0000001_0_0001 (protein)
chain: SLEEALEFLEEAAEERNDKALKWAVRDLEKLVRRGNEEQARRAVEHMLKVTGDPILEEVLKLLRK
B15: il2ra_site2_3nfp_normal_mot_HHH_b2_00232_000000252_0001_23_39_H_._HHH_b2_07199_0001_0000300013_0000001_0 (protein)
chain: SSSSSDEERVKELLEEVEELLRRGNPEEAQRVLREATQIAFEARNEELFALIADVAFLVFHSSSS
B16: il2ra_site2_3nfp_normal_mot_HHH_b2_06150_000000217_0001_39_53_H_._HHH_b1_01649_0001_0000300004_0000001_0 (protein)
chain: SSSSDIEERVEKLLEEAEERRKEGDPEAVEELLAEATHIAFENRNSRLFYLIAEVLFRLASSSSS
B17: il2ra_site2_2erj_normal_mot_HHH_b1_05525_000000147_0001_1_19_H_._HHH_b2_04646_0001_0000500042_0000001_0 (protein)
chain: SSSSSEEEERYEELWEELERAFREGDKELFRELAEELIELAEKLGSEASAEALEEILRRTSSSSS
B18: il2ra_site1_1z92_normal_mot_HHH_b2_00141_000000217_0001_1_20_H_._9e5b67f2fe50fe8120620fffc4d177d6_0001_0001_0000200026_0000001_0_af2pred_0001_af2pred_1 (protein)
chain: SDLEEIAEELERDPRFEEELARLVLKDAGGDPELARQFLKRIAKKAGIPPEVLERLEEIVEELVR

target: il2ra, P01589; experiment: yeast display titration

Binder | apparent Kd
B1 | inactive: no binding seen
B2 | inactive: no binding seen
B3 | inactive: no binding seen
B4 | inactive: no binding seen
B5 | inactive: no binding seen
B6 | inactive: no binding seen
B7 | inactive: no binding seen
B8 | inactive: > 1040 nM
B9 | inactive: no binding seen
B10 | inactive: no binding seen
B11 | inactive: no binding seen
B12 | inactive: no binding seen
B13 | inactive: no binding seen
B14 | inactive: no binding seen
B15 | inactive: no binding seen
B16 | inactive: no binding seen
B17 | inactive: no binding seen
B18 | inactive: no binding seen

Single values from the results shown.
Value of B4 under apparent Kd: inactive: no binding seen
Value of B18 under apparent Kd: inactive: no binding seen
